PubChem BioAssay AID504744 – Drosophila RNAi Screening Center – 2011
The deposit covers about 23,000 reagents; below is a random part of those with a known target gene and a result. In the full data, 98 (0.43%) got an active call. 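Only hit calls are given; the phospho-dAkt signals, z-scores and hit direction were not deposited.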 A plus sign joins genes that one reagent is predicted to hit.

Purpose: 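Identify dsRNAs that increase or decrease phospho-dAkt after insulin treatment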 (primary screen)
Cell system: Drosophila Kc167 cells
Reagents: long dsRNA against Drosophila genes, 250 ng dsRNA per well of a 384-well plate
Time to read-out: 3 days of knock-down, then overnight serum-free starvation before stimulation
Treatment: bovine insulin at 387 nM for 10 minutes after 12 h without serum
Measured: 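Per-well phospho-dAkt level from an in-cell fluorescent antibody stain, divided by a DNA-dye signal; log2 residuals turned into z-scores that take cell number into account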
Rule for the call: 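Hit in the insulin screen when the two-replicate mean z-score is more extreme than plus or minus 2.5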

no.	Target gene	DRSC id	activity call
1	Yp3	DRSC20302	inactive
2	CG13186	DRSC06311	inactive
3	CG31626 + CG8677	DRSC21844	inactive
4	CG11134	DRSC19384	inactive
5	CG7332	DRSC20038	inactive
6	CG1607	DRSC15130	inactive
7	Ino80	DRSC14760	inactive
8	Ino80	DRSC15333	inactive
9	Ino80	DRSC15501	inactive
10	CG11170	DRSC04090	inactive
11	CG18682 (retired record)	DRSC15373	inactive
12	CG18682 (retired record)	DRSC15374	inactive
13	Tsp42Ei	DRSC06189	inactive
14	pb	DRSC12409	inactive
15	pb	DRSC12629	inactive
16	CG1965	DRSC12577	inactive
17	CG1965	DRSC21828	inactive
18	CG32024	DRSC21883	inactive
19	betaTub60D	DRSC04673	inactive
20	betaTub60D	DRSC22218	inactive
21	w	DRSC17233	inactive
22	w	DRSC18850	inactive
23	Atg18a	DRSC10943	inactive
24	Tailor	DRSC12526	inactive
25	Prp4k	DRSC08144	inactive
26	Sugb	DRSC10815	inactive
27	ymp	DRSC13720	inactive
28	ymp	DRSC14482	inactive
29	Sirt4	DRSC18290	inactive
30	CG14070	DRSC02373	inactive
31	hng2	DRSC16412	inactive
32	CG12268	DRSC14491	inactive
33	fru	DRSC16951	inactive
34	fru	DRSC16952	inactive
35	fru	DRSC16953	inactive
36	fru	DRSC21600	inactive
37	BomS3	DRSC21458	inactive
38	CG33722 + CG18749	DRSC12674	inactive
39	CG33722 + CG18749	DRSC15386	inactive
40	CG8993	DRSC08616	inactive
41	Cht2	DRSC08650	inactive
42	CG12825	DRSC06174	inactive
43	SdhCL	DRSC16078	inactive
44	Inx7 + cm	DRSC18753	inactive
45	Pex19	DRSC02839	inactive
46	CG17047	DRSC06648	inactive
47	CG17824 (retired record)	DRSC10288	inactive
48	rho-5	DRSC02847	inactive
49	SREBP	DRSC11182	inactive
50	CG9451	DRSC11074	inactive
51	Dtg	DRSC15998	inactive
52	meigo	DRSC15877	inactive
53	CG14626	DRSC18631	inactive
54	CG32237	DRSC08312	inactive
55	CG32237	DRSC08315	inactive
56	Grip71	DRSC02042	inactive
57	CG31321	DRSC13028	inactive
58	kra	DRSC12320	inactive
59	CG31347	DRSC21582	inactive
60	Oseg4	DRSC08548	inactive
61	Npc2g	DRSC14296	inactive
62	dyw	DRSC18228	inactive
63	Acp95EF	DRSC14102	inactive
64	Drsl1	DRSC22490	inactive
65	S-Lap1	DRSC10627	inactive
66	Prx6c	DRSC06080	inactive
67	alpha-Cat	DRSC11917	inactive
68	Wnt6	DRSC02795	inactive
69	Drsl3	DRSC22630	inactive
70	ND-24L	DRSC10650	inactive
71	Psn	DRSC11743	inactive
72	hbs	DRSC07627	inactive
73	CG5883	DRSC10552	inactive
74	Mal-A7	DRSC06077	inactive
75	CG7565	DRSC10881	inactive
76	Flad1	DRSC19898	inactive
77	CG31086 + CG31323	DRSC14902	inactive
78	DIP-theta	DRSC00885	inactive
79	DIP-theta	DRSC02340	inactive
80	DIP-theta	DRSC02341	inactive
81	Or67c	DRSC11242	inactive
82	CG15084	DRSC06515	inactive
83	CG15084	DRSC21403	inactive
84	Taf8	DRSC20363	inactive
85	PIG-H	DRSC14856	inactive
86	TRAM	DRSC18178	inactive
87	TRAM	DRSC18651	inactive
88	wgn	DRSC19998	inactive
89	CG5646	DRSC15853	inactive
90	PGRP-LD + Pmi	DRSC10512	inactive
91	PGRP-LD + Pmi	DRSC10513	inactive
92	Ldh	DRSC11198	inactive
93	pdgy	DRSC19064	inactive
94	pdgy	DRSC19341	inactive
95	mod(mdg4)	DRSC13474	inactive
96	mod(mdg4)	DRSC13475	inactive
97	mod(mdg4)	DRSC13478	inactive
98	mod(mdg4)	DRSC13479	inactive
99	mod(mdg4)	DRSC15042	inactive
100	mod(mdg4)	DRSC17000	inactive
101	ppl	DRSC11899	inactive
102	Ir87a	DRSC14836	inactive
103	CG31248	DRSC22722	inactive
104	CG13065	DRSC09948	inactive
105	kl-5 (retired record)	DRSC20707	inactive
106	kl-5 (retired record)	DRSC20736	inactive
107	kl-5 (retired record)	DRSC20773	inactive
108	kl-5 (retired record)	DRSC21161	inactive
109	lncRNA:CR42862 + CG33229	DRSC08497	inactive
110	fun (retired record)	DRSC12300	inactive
111	hpRNA:CR18854 + IP3K1	DRSC02218	inactive
112	CG34136	DRSC01833	inactive
113	RpL11	DRSC07537	inactive
114	Orp8	DRSC15110	inactive
115	Orp8	DRSC15712	inactive
116	CG8369	DRSC16413	inactive
117	Mekk1	DRSC16302	inactive
118	Mekk1	DRSC16303	inactive
119	Dlic	DRSC19824	inactive
120	CG10516	DRSC09738	inactive
121	Ptp99A	DRSC13933	inactive
122	Ptp99A	DRSC13939	inactive
123	Ptp99A	DRSC14319	inactive
124	Ptp99A	DRSC14320	inactive
125	Ptp99A	DRSC16803	inactive
126	Ptp99A	DRSC22125	inactive
127	Ptp99A	DRSC22477	inactive
128	CG15482	DRSC02492	inactive
129	CG18324	DRSC06721	inactive
130	Zip42C.2	DRSC05004	inactive
131	m-cup	DRSC14430	inactive
132	Pfdn6	DRSC10915	inactive
133	CG11737	DRSC14364	inactive
134	Psf1	DRSC08638	inactive
135	Nox	DRSC06596	inactive
136	Nox	DRSC06857	inactive
137	tHMG1	DRSC16181	inactive
138	CG6321	DRSC10623	inactive
139	Vha26	DRSC12371	inactive
140	Kr-h1	DRSC00908	inactive
141	Kr-h1	DRSC03355	inactive
142	CG7367	DRSC03049	inactive
143	CG7557	DRSC10878	inactive
144	Ance-2	DRSC02539	inactive
145	hoe1	DRSC00265	inactive
146	hoe1	DRSC00333	inactive
147	hoe1	DRSC00353	inactive
148	AspRS-m	DRSC02646	inactive
149	CG9981	DRSC20225	inactive
150	CG31103	DRSC22324	inactive
151	CG30355	DRSC21958	inactive
152	Trmt112	DRSC11685	inactive
153	Nxt1	DRSC04630	inactive
154	Obp58c	DRSC04166	inactive
155	Epp	DRSC14607	inactive
156	fwd	DRSC08580	inactive
157	lectin-46Cb	DRSC06611	inactive

A stretch of the results above, as a working copy:
no.	Target gene	DRSC id	activity call
125	Ptp99A	DRSC16803	inactive
126	Ptp99A	DRSC22125	inactive
127	Ptp99A	DRSC22477	inactive
128	CG15482	DRSC02492	inactive
129	CG18324	DRSC06721	inactive
130	Zip42C.2	DRSC05004	inactive
131	m-cup	DRSC14430	inactive
132	Pfdn6	DRSC10915	inactive
133	CG11737	DRSC14364	inactive
134	Psf1	DRSC08638	inactive
135	Nox	DRSC06596	inactive
136	Nox	DRSC06857	inactive
137	tHMG1	DRSC16181	inactive
138	CG6321	DRSC10623	inactive
139	Vha26	DRSC12371	inactive
140	Kr-h1	DRSC00908	inactive
141	Kr-h1	DRSC03355	inactive
142	CG7367	DRSC03049	inactive
